## Library compounds against nucleic acid targets

Source: the ROBIN nucleic acid binder screens (doi:10.1002/anie.202211358).

Targets, with sequences 5′ to 3′:
TPP: TPP riboswitch RNA three-way junction, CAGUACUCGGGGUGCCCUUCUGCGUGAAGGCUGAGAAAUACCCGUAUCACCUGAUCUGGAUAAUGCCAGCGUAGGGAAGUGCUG. Hit rate about 0.7% of about 24,000 compounds.
SAM-II: SAM-II riboswitch RNA pseudoknot, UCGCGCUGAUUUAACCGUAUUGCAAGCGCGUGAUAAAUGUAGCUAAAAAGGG. Hit rate about 1% of about 21,000 compounds.
PreQ1: PreQ1 riboswitch RNA pseudoknot, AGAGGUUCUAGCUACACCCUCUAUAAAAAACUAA. From B. subtilis. Hit rate about 0.7% of about 24,000 compounds.

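The test is a small-molecule microarray: each compound is printed twice on a reactive slide, and binding shows as fluorescence of the labelled oligonucleotide after washing. For the PreQ1, TPP and SAM-II riboswitches the laboratory earlier reported (doi:10.1038/s41467-019-09493-3) 1 µM RNA, 2 h, and a rule that included a mean Z-score above 3 (spot signal-to-noise against the whole library), a score well above that on a control array, and duplicate spots agreeing (coefficient of variation under 100). The data file gives only the calls; its cut-offs may differ, and compounds hitting several targets are kept. The calls come from the array alone, and fixing a compound to the slide can hide its binding.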 A compound is marked 1 if it was called a hit and 0 if it was screened but was not. Compounds were drawn at random from those tested, without regard to their results. A dash means that no call is listed here.

| # | structure | TPP | SAM-II | PreQ1 |
|---|---|---|---|---|
| 1 | `CCC(C)Nc1oc(-c2ccc(S(=O)(=O)N3CCCC3)cc2)nc1C#N` (stereo not given) | 0 | - | 0 |
| 2 | `COC(=O)c1ccccc1NC1=NS(=O)(=O)c2ccccc21` | 0 | 0 | 0 |
| 3 | `Cc1nn(-c2ccccc2)c2c1C(c1c(F)cccc1Cl)C(C#N)=C(N)O2` (stereo not given) | 0 | 0 | 0 |
| 4 | `Cc1ccc(-c2nc3ccccn3c2Nc2ccc3c(c2)OCCO3)o1` | 0 | 0 | 0 |
| 5 | `CCOC(=O)C1CCN(c2c(Nc3cc(C)[nH]n3)c(=O)c2=O)CC1` | 0 | 0 | 0 |
| 6 | `CN(Cc1cccc(-c2nnn[nH]2)c1)C(=O)c1cn(CC2CCCNC2)nn1` (stereo not given) | 0 | 0 | 0 |
| 7 | `CC(C)(C1NCCc2[nH]cnc21)N1CCOCC1` (stereo not given) | 0 | 0 | 0 |
| 8 | `CC(C)CC(NCC(O)Cn1c2ccccc2c2ccccc21)C(=O)O` (stereo not given) | 0 | 0 | 0 |
| 9 | `CC(NC(=O)c1ccc(CN2CCCCC2)cc1)c1nnc(N)s1` (stereo not given) | 0 | 0 | 0 |
| 10 | `Cc1csc(/N=N/c2ccc(N(C)C)cc2)[n+]1[O-]` | 0 | 0 | 0 |
| 11 | `Nc1nc(C2CC2)cs1` | 0 | 0 | 0 |
| 12 | `CC1CCC(Nc2c(-c3ccc(F)cc3)[nH]c3c(C#N)cnn23)CC1` (stereo not given) | 0 | - | 0 |
| 13 | `CC(=O)O[C@H]1C[C@@H]2CC[C@H]3[C@H]4C[C@H]([N+]5(C)CCCCC5)[C@@H](OC(C)=O)[C@@]4(C)CC[C@@H]3[C@@]2(C)C[C@H]1[N+]1(C)CCCCC1` | 0 | 0 | 0 |
| 14 | `Nc1ncnc2ccc(-c3cccc(C(=O)N4CCCC4)c3)cc12` | 0 | 0 | 0 |
| 15 | `CCOC(=O)c1oc2ccc(CNC3CCCCC3)c(Cl)c2c1C.O=C(O)C(=O)O` | 0 | 0 | 0 |
| 16 | `COc1ccc(CCNc2nc3ccc(Cl)cc3n3cnnc23)cc1OC` | 0 | - | 0 |
| 17 | `CCC(C)[C@H](N)c1nnc(SCc2ccc(C)cc2)o1` (stereo not given in full) | 0 | 0 | 0 |
| 18 | `CN1CCN(C)C(CC(=O)N(CCCO)Cc2cccc3ccccc23)C1` (stereo not given) | 0 | 0 | 0 |
| 19 | `COc1ccccc1/N=N/Nc1ccccc1OC` | 0 | 0 | 0 |
| 20 | `Cc1nn(-c2ccccc2)c(Cl)c1C1C(C#N)=C(N)OC2=C1C(=O)CCC2` (stereo not given) | 0 | 0 | 0 |
| 21 | `Cc1ccc2c(C)c(C(=O)N3C[C@@H](CN4CCOCC4)[C@@H](CO)C3)oc2c1` | 0 | 0 | 0 |
| 22 | `OCC1(CNC2CCN(c3nnc(-c4ccccc4)s3)CC2)CCCC1` | 0 | 0 | 0 |
| 23 | `OCC1(Cn2cnc(-c3ccccc3)c2-c2ccc3c(c2)OCCO3)CCOCC1` | 0 | 0 | 0 |
| 24 | `Cc1nc(N(C)C)ncc1C(=O)N[C@H]1Cc2ccccc2[C@@H]1N` | 0 | 0 | 0 |
| 25 | `COc1ccc(OCC(O)Cn2c(NN=Cc3ccc([N+](=O)[O-])cc3)nc3c2c(=O)[nH]c(=O)n3C)cc1` (stereo not given) | 0 | 0 | 0 |
| 26 | `CCNC(=O)[C@@H]1C[C@@H](N)CN1C(=O)c1noc2c1CCCC2` | 0 | 0 | 0 |
| 27 | `Cc1cc(C)c(-c2c(NCc3ccccc3)c(=O)c2=O)cc1C` | 0 | - | 0 |
| 28 | `N[C@H](Cc1ccco1)C(=O)N1CCC(N2CCC(O)CC2)CC1` | 0 | 0 | 0 |
| 29 | `Cc1cccc(C2C(C#N)=C(N)N(c3ccc(F)cc3)C3=C2S(=O)(=O)CC3)c1` (stereo not given) | 0 | 0 | 0 |
| 30 | `O=C(CCCCCCC(=O)Nc1cccnc1)NO` | 0 | 0 | 0 |
| 31 | `OC(c1ccccc1)(c1ccccc1)c1nccn1-c1ccccc1` | 0 | 0 | 0 |
| 32 | `CCOCCCNC(=O)C(CC)Nc1cccc(OC)c1` (stereo not given) | 0 | 0 | 0 |
| 33 | `Cc1cccn2c(CNC(=O)CCc3cc4n(n3)CCCNC4)cnc12` | 0 | 0 | 0 |
| 34 | `CCOC(=O)c1cnc2ccc(Br)cc2c1Nc1ccccc1O` | 0 | 0 | 0 |
| 35 | `COCCC1(CO)CCCN(C(=O)Cc2ccc(CO)cc2)C1` (stereo not given) | 0 | 0 | 0 |
| 36 | `Nc1nonc1C(=O)NN=c1c(=O)c2ccccc2c1=O` | 0 | 0 | 0 |
| 37 | `COC(=O)Nc1ccc(-c2cnn(CCO)c2)cc1` | 0 | 0 | 0 |
| 38 | `O=C(NCCO)c1cc2n(n1)CCCN(Cc1cc3cc[nH]c3cn1)C2` | 0 | 0 | 0 |
| 39 | `O=C(c1ccc(Cn2ccnc2)o1)N1CCCC(Nc2ccc(F)cc2)C1` (stereo not given) | 0 | 0 | 0 |
| 40 | `CC(C)=CCC1(CO)CCCN(C(=O)Cc2ccccn2)C1` (stereo not given) | 0 | 0 | 0 |
| 41 | `CCC(=O)Nc1ccc(OCC(=O)N2CCCC3(CCNCC3)CC2)cc1` | 0 | 0 | 0 |
| 42 | `COc1ccc(CCNc2cc(C)nc3c(C)c(-c4ccc(OC)c(OC)c4)nn23)cc1OC` | 0 | - | 0 |
| 43 | `Nc1c(-c2nc(-c3ccc4c(c3)OCO4)no2)nnn1-c1ccc(Br)cc1F` | 0 | - | 0 |
| 44 | `C=CCn1c(SCc2ccc(C(=O)NCCO)cc2)nc2sc(C)c(C)c2c1=O` | 0 | 0 | 0 |
| 45 | `Cc1ccc(-n2nc(CO)c(C(=O)NCCO)n2)cc1` | 0 | - | 0 |
| 46 | `COc1ccccc1CNc1nc2ccc(Cl)cc2nc1-n1nc(C)cc1C` | 0 | 0 | 0 |
| 47 | `Cc1ncc(CO)c2c1Oc1nc(-c3ccccc3Cl)[nH]c(=S)c1C2` | 0 | 0 | 0 |
| 48 | `Cc1ccc(S(=O)(=O)c2nc(-c3cccc(C)c3)oc2NC2CC2)cc1` | 0 | - | 0 |
| 49 | `COc1ccc(NC(=O)c2c(N)sc(-c3ccccc3)c2C)cc1` | 0 | 0 | 0 |
| 50 | `Cc1c(OCC(F)(F)F)ccnc1CS(=O)c1nc2ccccc2[nH]1` (stereo not given) | 0 | 0 | 0 |
| 51 | `CN(Cc1ccc(-n2cccn2)cc1)c1cc(N2CCC(O)CC2)ncn1` | 0 | 0 | 0 |
| 52 | `COc1cccc(-c2ncc(CNC(=O)[C@H]3CC[C@@H](N)C3)s2)c1` | 0 | 1 | 0 |
| 53 | `CC(C)(Sc1cc(C(C)(C)C)c(O)c(C(C)(C)C)c1)Sc1cc(C(C)(C)C)c(O)c(C(C)(C)C)c1` | 0 | 0 | 0 |
| 54 | `Cc1c(NCc2cccnc2)cccc1C(=O)N1C[C@@H](C)O[C@@H](C)C1` | 0 | 0 | 0 |
| 55 | `CCc1ncc(C(=O)N[C@@H]2c3ccccc3C3(CCNCC3)[C@H]2OC)cn1` | 0 | 0 | 0 |
| 56 | `CCOC(=O)c1ccc(NCc2ccc(N(C)C)cc2)cc1` | 0 | 0 | 0 |
| 57 | `CSCCCN1CCC2(CC1)[C@H](O)C[C@@H]2O` | 0 | 0 | 0 |
| 58 | `CCCC(=O)C1=C(NCCc2c(C)[nH]c3ccc(OC)cc23)CCCC1=O` | 0 | 0 | 0 |
| 59 | `Cc1nn(CCCNC(=O)c2cn([C@H]3CC[C@@H](N)CC3)nn2)c(C)c1Cl` | 0 | 0 | 0 |
| 60 | `CC(C)c1cc(Nc2ccc(F)cc2)n2nc(-c3cccnc3)nc2n1` | 0 | - | 0 |
| 61 | `O=C(c1ccn2cnnc2c1)N1CCNC(c2ccccc2)C1` (stereo not given) | 0 | 0 | 0 |
| 62 | `C=CC(=O)Nc1cccc(Oc2nc(Nc3ccc(N4CCN(C)CC4)cc3)ncc2Cl)c1` | 0 | 0 | 0 |
| 63 | `CN(C)NN=C1N=CN=C1C(N)=O` | 0 | 0 | 0 |
| 64 | `CC(C)(C)Nc1nc(Cl)nc(Oc2ccc(=O)n(-c3ccccc3)n2)n1` | 0 | 0 | 0 |
| 65 | `O=C(c1ccc(Br)cc1)c1cc(Cl)ccc1NCc1ccccc1` | 0 | 0 | 0 |
| 66 | `COC(=O)c1ccc(COc2ccc(CN[C@@H](C)C(N)=O)cc2)o1` | 0 | 0 | 0 |
| 67 | `CCc1nc(NCC2CCCO2)c(C#N)c2c1COC(C)(C)C2` (stereo not given) | 0 | 0 | 0 |
| 68 | `CCSCCC(=O)N1C[C@H](c2ccccc2)[C@@H](N)C1` | 0 | 0 | 0 |
| 69 | `CC1CC(Nc2ccccc2)c2ccccc2N1C(=O)c1ccc2c(c1)OCO2` (stereo not given) | 0 | 0 | 0 |
| 70 | `CNc1nc(N)c(C(=O)C(C)(C)C)s1` | 0 | 0 | 0 |

For reference, 8 entries once more:

structure,TPP,SAM-II,PreQ1
CC(C)(Sc1cc(C(C)(C)C)c(O)c(C(C)(C)C)c1)Sc1cc(C(C)(C)C)c(O)c(C(C)(C)C)c1,0,0,0
COc1ccc(CCNc2cc(C)nc3c(C)c(-c4ccc(OC)c(OC)c4)nn23)cc1OC,0,-,0
Nc1nc(C2CC2)cs1,0,0,0
CCOC(=O)c1ccc(NCc2ccc(N(C)C)cc2)cc1,0,0,0
Cc1nn(CCCNC(=O)c2cn([C@H]3CC[C@@H](N)CC3)nn2)c(C)c1Cl,0,0,0
CC(C)CC(NCC(O)Cn1c2ccccc2c2ccccc21)C(=O)O (stereo not given),0,0,0
O=C(c1ccn2cnnc2c1)N1CCNC(c2ccccc2)C1 (stereo not given),0,0,0
CC(C)(C1NCCc2[nH]cnc21)N1CCOCC1 (stereo not given),0,0,0